# According to article PMC6628435, “Chemical Synthesis, Proper Folding, Nav Channel Selectivity Profile and Analgesic Properties of the Spider Peptide Phlotoxin 1” (Toxins, 2019):
# Conditions: mouse, in vivo
structure (smiles),measurement,value
"CN1CC[C@]23c4c5ccc(O)c4O[C@H]2[C@@H](O)C=C[C@H]3[C@H]1C5 [morphine, reference compound]",neurotoxicity after intrathecal injection,no neurotoxicity was observed
